Results are given in words; binding and its absence hold for the method and conditions named. Binding seen in cells or lysates may run through a third protein. Here binding means that the protein was enriched with, or labelled near, the bait; the list need not be complete.
T1: Mediator subunit MED16 (endogenous) (human (endogenous in 293T and HeLa)) (UniProt Q9Y2X0)
T1 sequence: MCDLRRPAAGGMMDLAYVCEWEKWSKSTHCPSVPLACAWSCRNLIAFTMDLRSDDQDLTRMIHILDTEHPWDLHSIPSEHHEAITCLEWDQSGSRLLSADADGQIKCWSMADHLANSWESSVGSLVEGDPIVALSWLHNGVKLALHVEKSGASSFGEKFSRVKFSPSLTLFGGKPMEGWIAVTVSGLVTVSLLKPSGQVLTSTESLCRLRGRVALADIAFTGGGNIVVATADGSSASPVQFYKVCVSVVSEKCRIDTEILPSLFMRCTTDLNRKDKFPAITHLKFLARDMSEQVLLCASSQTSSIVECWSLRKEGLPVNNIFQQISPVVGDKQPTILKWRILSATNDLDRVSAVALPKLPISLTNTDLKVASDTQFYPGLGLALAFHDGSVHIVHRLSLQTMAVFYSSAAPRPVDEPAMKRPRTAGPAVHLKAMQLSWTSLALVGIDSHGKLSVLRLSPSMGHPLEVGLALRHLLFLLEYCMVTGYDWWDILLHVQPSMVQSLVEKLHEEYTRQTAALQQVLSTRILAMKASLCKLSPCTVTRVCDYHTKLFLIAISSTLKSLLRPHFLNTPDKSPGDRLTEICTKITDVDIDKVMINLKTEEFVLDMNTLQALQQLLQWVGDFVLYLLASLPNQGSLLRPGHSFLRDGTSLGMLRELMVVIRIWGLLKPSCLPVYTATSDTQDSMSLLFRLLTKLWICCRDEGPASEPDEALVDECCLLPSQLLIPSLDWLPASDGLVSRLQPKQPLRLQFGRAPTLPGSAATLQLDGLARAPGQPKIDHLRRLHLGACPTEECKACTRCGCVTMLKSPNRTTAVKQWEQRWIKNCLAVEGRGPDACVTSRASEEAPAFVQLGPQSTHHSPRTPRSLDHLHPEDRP


Biological target: T1, Mediator subunit MED16 (endogenous) (human (endogenous in 293T and HeLa))
Assay: affinity purification with mass spectrometry

Row | binding | Binder
1 | binds | UBP1 (endogenous) (protein, UniProt Q9NZI7 1-540) MAWVLKMDEVIESGLVHDFDASLSGIGQELGAGAYSMSDVLALPIFKQEDSSLPLDGETEHPPFQYVMCAATSPAVKLHDETLTYLNQGQSYEIRMLDNRKMGDMPEINGKLVKSIIRVVFHDRRLQYTEHQQLEGWKWNRPGDRLLDLDIPMSVGIIDTRTNPSQLNAVEFLWDPAKRTSAFIQVHCISTEFTPRKHGGEKGVPFRIQVDTFKQNENGEYTDHLHSASCQIKVFKPKGADRKQKTDREKMEKRTAHEKEKYQPSYDTTILTEMRLEPIIEDAVEHEQKKSSKRTLPADYGDSLAKRGSCSPWPDAPTAYVNNSPSPAPTFTSPQQSTCSVPDSNSSSPNHQGDGASQTSGEQIQPSATIQETQQWLLKNRFSSYTRLFSNFSGADLLKLTKEDLVQICGAADGIRLYNSLKSRSVRPRLTIYVCREQPSSTVLQGQQQAASSASENGSGAPYVYHAIYLEEMIASEVARKLALVFNIPLHQINQVYRQGPTGIHILVSDQMVQNFQDESCFLFSTVKAESSDGIHIILK
2 | binds | TFCP2 (endogenous) (protein, UniProt Q12800 1-502) MAWALKLPLADEVIESGLVQDFDASLSGIGQELGAGAYSMSDVLALPIFKQEESSLPPDNENKILPFQYVLCAATSPAVKLHDETLTYLNQGQSYEIRMLDNRKLGELPEINGKLVKSIFRVVFHDRRLQYTEHQQLEGWRWNRPGDRILDIDIPMSVGIIDPRANPTQLNTVEFLWDPAKRTSVFIQVHCISTEFTMRKHGGEKGVPFRVQIDTFKENENGEYTEHLHSASCQIKVFKPKGADRKQKTDREKMEKRTPHEKEKYQPSYETTILTECSPWPEITYVNNSPSPGFNSSHSSFSLGEGNGSPNHQPEPPPPVTDNLLPTTTPQEAQQWLHRNRFSTFTRLFTNFSGADLLKLTRDDVIQICGPADGIRLFNALKGRMVRPRLTIYVCQESLQLREQQQQQQQQQQKHEDGDSNGTFFVYHAIYLEELTAVELTEKIAQLFSISPCQISQIYKQGPTGIHVLISDEMIQNFQEEACFILDTMKAETNDSYHIILK
